No constants are given. Whether binding was seen depends on the method and setting. Binding seen in cells or lysates may run through a third protein. Binding calls can cover weak binding; strength is not graded here.

Assay [1] concerns the target His6-tagged snapdragon chalcone isomerase-like protein (His6-AmCHIL) (Antirrhinum majus). The experiment in a line: pull-down; Method II: His6-AmCHIL added to extract of red snapdragon petals, Ni2+-coated Sepharose beads, 4 C 1 h; washes 0.05 M HEPES-NaOH pH 7.5; elution 500 mM imidazole; immunoblot with anti-AmCHS IgG; control without His6-AmCHIL; only the target purified.

Assay [2] concerns the target His6-tagged snapdragon CHIL (Antirrhinum majus (snapdragon)). The assay is described as follows: pull-down; Method II: His6-AmCHIL added to the extract of red snapdragon petals, Ni2+-coated Sepharose beads, 4 °C 1 h; wash 0.05 M HEPES-NaOH pH 7.5; elution with 500 mM imidazole; immunoblot with anti-AmCHS IgG; control with water for His6-AmCHIL; only the target purified. On the technique in general: Immunoblotting shows a protein as a band on a membrane.

B1: snapdragon chalcone synthase (AmCHS) of the petal extract (enzyme, UniProt P06515 1-390)
chain: MVTVEEVRRAQRAEGPATVLAIGTATPANCVDQSTYPDYYFRITNSEHMTELKEKFKRMCDKSNIKRRYMHLTEEILKENPAMCEYMAPSLDARQDIVVVEVPRLGKEAAQKAIKEWGQPKSKITHLVFCTTSGVDMPGADYQLTKLLGLRPSVKRFMMYQQGCFAGGTVLRMAKDLAENNAGARVLVVCSEITAVTFRGPADTHLDSLVGQALFGDGAAAVIVGSDPVVGVERPLFQIVTAAQTLLPDSHGAIDGHLREVGLTFHLLKDVPGLISKNIEKSLKEAFDPLGISDWNSVFWIAHPGGPAILDQVEEKLGLKPEKLRSTRQVLSEYGNMSSACVLFILDEMRKSSAKEGMSTTGEGLDWGVLFGFGPGLTVETVVLHSVPLN
Turning to B1, in assay [1], the binding entry is reported as “binds”.

B2: AmCHS of snapdragon petal extract (enzyme, UniProt P06515 1-390)
chain: B1 chain
Turning to B2, in assay [2], the binding entry was “binds”.

These data come from publication PMC7018950.
